Test results published in paper PMC10416611.

B1: AHL28 (endogenous) (protein, UniProt Q9M9R4 1-206)
chain: METVGRPRGRPRGSKNKPKAPIFVTIDPPMSPYILEVPSGNDVVEALNRFCRGKAIGFCVLSGSGSVADVTLRQPSPAAPGSTITFHGKFDLLSVSATFLPPLPPTSLSPPVSNFFTVSLAGPQGKVIGGFVAGPLVAAGTVYFVATSFKNPSYHRLPATEEEQRNSAEGEEEGQSPPVSGGGGESMYVGGSDVIWDPNAKAPSPY
B2: AHL15 (endogenous) (protein, UniProt Q9M2S3 1-310)
chain: MANPWWVGNVAIGGVESPVTSSAPSLHHRNSNNNNPPTMTRSDPRLDHDFTTNNSGSPNTQTQSQEEQNSRDEQPAVEPGSGSGSTGRRPRGRPPGSKNKPKSPVVVTKESPNSLQSHVLEIATGADVAESLNAFARRRGRGVSVLSGSGLVTNVTLRQPAASGGVVSLRGQFEILSMCGAFLPTSGSPAAAAGLTIYLAGAQGQVVGGGVAGPLIASGPVIVIAATFCNATYERLPIEEEQQQEQPLQLEDGKKQKEENDDNESGNNGNEGSMQPPMYNMPPNFIPNGHQMAQHDVYWGGPPPRAPPSY
B3: AHL19 (endogenous) (protein, UniProt Q9SR17 1-315)
chain: MANPWWTGQVNLSGLETTPPGSSQLKKPDLHISMNMAMDSGHNNHHHHQEVDNNNNDDDRDNLSGDDHEPREGAVEAPTRRPRGRPAGSKNKPKPPIFVTRDSPNALKSHVMEIASGTDVIETLATFARRRQRGICILSGNGTVANVTLRQPSTAAVAAAPGGAAVLALQGRFEILSLTGSFLPGPAPPGSTGLTIYLAGGQGQVVGGSVVGPLMAAGPVMLIAATFSNATYERLPLEEEEAAERGGGGGSGGVVPGQLGGGGSPLSSGAGGGDGNQGLPVYNMPGNLVSNGGSGGGGQMSGQEAYGWAQARSGF

Target: GFP-AHL17 fusion protein (Arabidopsis thaliana) (UniProt Q9LTA2)
Assay: affinity purification with mass spectrometry; proteins extracted from 7-day-old 35S::GFP-AHL17 Arabidopsis seedlings (methods: roots), precipitated with anti-GFP antibody, mass spectrometry; WT plants as negative control

| Binder | binding |
| --- | --- |
| B1 | binds |
| B2 | binds |
| B3 | binds |

Results are given in words; binding and its absence hold for the method and conditions named. Binding seen in cells or lysates may run through a third protein. A yes stands for co-enrichment or nearness to the bait. Other partners may have been found.
